From PMC12523843, “Kuwanon A Targeted YWHAB in Hepatocellular Carcinoma Cells to Inhibit the Raf/MEK/ERK Signaling Pathway” (Cells, 2025)

Test system: normal human liver cells (L-O2)
Assay: MTT IC50 determination in normal liver cells
Format: cell-based
Details: L-O2 vs MHCC97 H, MTT method
Method: Cell viability was assessed using MTT experiments. Cells, together with KA, were seeded into 96-well plates at a density of 2000 cells per well with three replicates per condition. DMSO was used as a control. At designated time points, 20 μL of MTT (Sigma, St. Louis, MO, USA) solution was added to each well and incubated for 3 h. After removing the culture medium, 200 μL of DMSO was added to dissolve the formazan crystals. The absorbance was then measured using a microplate reader at a wavelength of 560 nm.

Molecule	ratio of IC50 in normal liver cells compared to tumor cells
CC(C)=CCc1c(-c2ccc(O)cc2O)oc2c([C@H]3C=C(C)C[C@@H](c4ccc(O)cc4O)[C@@H]3C(=O)c3ccc(O)cc3O)c(O)cc(O)c2c1=O [Kuwanon G, kuwanon G]	greater than 3
CC(C)=CCc1c(-c2ccc(O)cc2O)oc2c(CC=C(C)C)c(O)cc(O)c2c1=O [Mulberrin]	greater than 3
sanggenone C	greater than 3
CC(C)(O)CCc1c(-c2ccc(O)cc2O)oc2c3c(cc(O)c2c1=O)OC(C)(C)C=C3 [Morusinol]	greater than 3
CC(C)=CCC/C(C)=C/Cc1c(O)ccc(-c2oc3cc(O)cc(O)c3c(=O)c2CC=C(C)C)c1O [L8-06, 3'-geranyl-3-prenyl-2',4',5,7-tetrahydroxyflavone]	greater than 3
CC(C)=CCc1c(-c2ccc(O)c3c2OC(C)(C)C=C3)oc2cc(O)cc(O)c2c1=O [KA, Kuwanon A]	greater than 3
Cc1cc2c3c(c1)-c1c(O)cc(-c4cc5ccc(O)cc5o4)cc1OC3(c1ccc(O)cc1O)Oc1cc(O)ccc1-2 (stereo not shown) [Albanol B, albanol B]	greater than 3
sanggenone D	greater than 3
CC(C)=CCc1c(-c2ccc(O)cc2O)oc2c3c(cc(O)c2c1=O)OC(C)(C)C=C3 [Morusin]	greater than 3
sanggenol L	greater than 3
